Data published in the supplement of paper PMC12067093, “Discovery and optimisation of a covalent ligand for TRIM25 and its application to targeted protein ubiquitination” (Chemical Science, 2025).
Some of the results follow.

By UniProt entry, the sequences of proteins in these tests, tags left out. Where a name states a change or a piece, a line headed by the entry shows the natural chain unless it says otherwise.
UniProt A6NFI3: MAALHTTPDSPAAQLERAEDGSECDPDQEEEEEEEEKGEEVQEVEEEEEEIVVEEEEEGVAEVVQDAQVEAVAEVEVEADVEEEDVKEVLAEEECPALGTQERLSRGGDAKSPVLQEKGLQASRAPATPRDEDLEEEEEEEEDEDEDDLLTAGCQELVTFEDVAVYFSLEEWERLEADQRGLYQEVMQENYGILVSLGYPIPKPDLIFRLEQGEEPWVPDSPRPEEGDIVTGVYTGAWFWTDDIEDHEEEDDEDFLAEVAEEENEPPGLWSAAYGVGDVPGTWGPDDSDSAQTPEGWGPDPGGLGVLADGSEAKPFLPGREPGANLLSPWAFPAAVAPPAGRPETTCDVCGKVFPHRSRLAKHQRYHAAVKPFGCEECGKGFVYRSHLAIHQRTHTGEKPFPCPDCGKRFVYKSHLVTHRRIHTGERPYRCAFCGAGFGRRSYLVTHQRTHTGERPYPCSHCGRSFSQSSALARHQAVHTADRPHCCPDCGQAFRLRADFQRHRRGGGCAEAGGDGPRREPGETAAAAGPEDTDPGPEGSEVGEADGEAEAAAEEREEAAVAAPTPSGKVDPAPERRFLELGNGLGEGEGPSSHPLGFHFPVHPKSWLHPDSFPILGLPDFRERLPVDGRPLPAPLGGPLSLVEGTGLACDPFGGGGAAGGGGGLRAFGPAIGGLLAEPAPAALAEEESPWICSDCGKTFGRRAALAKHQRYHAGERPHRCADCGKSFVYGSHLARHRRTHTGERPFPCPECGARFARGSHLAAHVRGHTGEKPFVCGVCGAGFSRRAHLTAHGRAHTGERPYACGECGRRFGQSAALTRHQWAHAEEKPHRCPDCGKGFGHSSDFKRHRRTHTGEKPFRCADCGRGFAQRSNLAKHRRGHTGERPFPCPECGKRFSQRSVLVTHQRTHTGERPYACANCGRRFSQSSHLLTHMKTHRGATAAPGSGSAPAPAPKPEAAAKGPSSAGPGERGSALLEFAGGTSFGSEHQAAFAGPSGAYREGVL
UniProt Q96KR1: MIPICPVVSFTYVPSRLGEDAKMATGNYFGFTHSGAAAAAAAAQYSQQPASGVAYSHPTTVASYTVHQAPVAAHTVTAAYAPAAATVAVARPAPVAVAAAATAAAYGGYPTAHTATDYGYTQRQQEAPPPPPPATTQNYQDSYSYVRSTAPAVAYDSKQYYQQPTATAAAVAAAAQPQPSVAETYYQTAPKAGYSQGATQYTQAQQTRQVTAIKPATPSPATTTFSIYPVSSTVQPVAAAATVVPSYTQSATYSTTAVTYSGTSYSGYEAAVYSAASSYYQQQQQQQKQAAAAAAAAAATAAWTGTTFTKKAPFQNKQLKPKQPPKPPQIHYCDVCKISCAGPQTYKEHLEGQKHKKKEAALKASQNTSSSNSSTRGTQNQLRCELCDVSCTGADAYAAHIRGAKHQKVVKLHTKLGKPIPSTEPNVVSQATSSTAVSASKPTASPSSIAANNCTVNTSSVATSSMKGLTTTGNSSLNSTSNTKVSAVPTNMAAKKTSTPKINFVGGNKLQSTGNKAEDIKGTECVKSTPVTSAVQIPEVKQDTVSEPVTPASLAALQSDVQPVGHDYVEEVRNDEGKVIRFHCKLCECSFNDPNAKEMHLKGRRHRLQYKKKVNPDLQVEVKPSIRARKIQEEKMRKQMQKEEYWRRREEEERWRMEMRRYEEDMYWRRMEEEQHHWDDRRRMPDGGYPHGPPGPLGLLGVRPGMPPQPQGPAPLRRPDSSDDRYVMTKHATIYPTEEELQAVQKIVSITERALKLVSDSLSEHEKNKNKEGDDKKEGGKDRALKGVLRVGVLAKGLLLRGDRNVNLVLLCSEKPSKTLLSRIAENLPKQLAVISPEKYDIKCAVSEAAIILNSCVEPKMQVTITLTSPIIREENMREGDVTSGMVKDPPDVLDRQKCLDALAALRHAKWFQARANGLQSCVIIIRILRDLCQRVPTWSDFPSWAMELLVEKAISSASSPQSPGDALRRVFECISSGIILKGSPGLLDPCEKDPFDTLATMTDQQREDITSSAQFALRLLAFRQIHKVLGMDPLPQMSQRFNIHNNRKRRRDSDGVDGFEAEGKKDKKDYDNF
UniProt O75362: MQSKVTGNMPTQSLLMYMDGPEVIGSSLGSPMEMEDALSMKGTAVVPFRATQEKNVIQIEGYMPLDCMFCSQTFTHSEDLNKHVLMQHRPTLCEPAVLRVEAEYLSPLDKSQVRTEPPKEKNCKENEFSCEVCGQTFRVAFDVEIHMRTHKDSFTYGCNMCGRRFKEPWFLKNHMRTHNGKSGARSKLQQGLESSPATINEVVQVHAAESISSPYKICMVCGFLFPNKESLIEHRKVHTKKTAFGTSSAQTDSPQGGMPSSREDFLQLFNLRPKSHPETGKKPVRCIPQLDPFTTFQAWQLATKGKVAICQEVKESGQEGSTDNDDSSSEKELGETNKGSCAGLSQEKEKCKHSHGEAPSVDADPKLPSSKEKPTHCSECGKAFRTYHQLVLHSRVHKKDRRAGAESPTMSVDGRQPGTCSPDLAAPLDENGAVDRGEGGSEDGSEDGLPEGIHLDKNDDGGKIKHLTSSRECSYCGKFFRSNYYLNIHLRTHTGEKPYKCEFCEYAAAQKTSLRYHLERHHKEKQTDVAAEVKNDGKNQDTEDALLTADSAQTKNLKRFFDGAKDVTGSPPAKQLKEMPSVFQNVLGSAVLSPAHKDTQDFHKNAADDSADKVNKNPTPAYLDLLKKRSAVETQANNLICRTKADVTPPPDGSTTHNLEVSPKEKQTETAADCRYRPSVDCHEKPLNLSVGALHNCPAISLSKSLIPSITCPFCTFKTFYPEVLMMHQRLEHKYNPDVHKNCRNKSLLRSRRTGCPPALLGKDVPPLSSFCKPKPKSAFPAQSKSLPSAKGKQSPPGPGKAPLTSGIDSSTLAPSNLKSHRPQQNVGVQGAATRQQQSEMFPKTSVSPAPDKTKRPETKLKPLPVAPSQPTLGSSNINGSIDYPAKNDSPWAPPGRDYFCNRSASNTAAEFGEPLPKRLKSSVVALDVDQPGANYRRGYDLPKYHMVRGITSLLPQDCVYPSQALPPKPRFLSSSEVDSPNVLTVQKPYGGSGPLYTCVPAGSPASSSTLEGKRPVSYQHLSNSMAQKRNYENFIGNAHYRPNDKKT
UniProt P47974: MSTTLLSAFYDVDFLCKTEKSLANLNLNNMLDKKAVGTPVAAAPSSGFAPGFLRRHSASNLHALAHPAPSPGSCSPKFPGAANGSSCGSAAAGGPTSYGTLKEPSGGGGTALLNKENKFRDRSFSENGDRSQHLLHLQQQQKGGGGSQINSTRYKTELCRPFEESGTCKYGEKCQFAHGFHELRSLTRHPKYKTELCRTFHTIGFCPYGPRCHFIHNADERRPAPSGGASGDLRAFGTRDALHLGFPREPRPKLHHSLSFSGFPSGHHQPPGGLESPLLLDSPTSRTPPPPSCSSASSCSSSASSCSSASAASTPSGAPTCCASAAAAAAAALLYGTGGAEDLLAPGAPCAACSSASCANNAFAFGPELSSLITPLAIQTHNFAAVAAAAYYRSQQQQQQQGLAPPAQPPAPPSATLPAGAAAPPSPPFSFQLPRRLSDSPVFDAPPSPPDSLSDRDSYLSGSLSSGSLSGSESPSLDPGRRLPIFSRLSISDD
UniProt Q6ZN55: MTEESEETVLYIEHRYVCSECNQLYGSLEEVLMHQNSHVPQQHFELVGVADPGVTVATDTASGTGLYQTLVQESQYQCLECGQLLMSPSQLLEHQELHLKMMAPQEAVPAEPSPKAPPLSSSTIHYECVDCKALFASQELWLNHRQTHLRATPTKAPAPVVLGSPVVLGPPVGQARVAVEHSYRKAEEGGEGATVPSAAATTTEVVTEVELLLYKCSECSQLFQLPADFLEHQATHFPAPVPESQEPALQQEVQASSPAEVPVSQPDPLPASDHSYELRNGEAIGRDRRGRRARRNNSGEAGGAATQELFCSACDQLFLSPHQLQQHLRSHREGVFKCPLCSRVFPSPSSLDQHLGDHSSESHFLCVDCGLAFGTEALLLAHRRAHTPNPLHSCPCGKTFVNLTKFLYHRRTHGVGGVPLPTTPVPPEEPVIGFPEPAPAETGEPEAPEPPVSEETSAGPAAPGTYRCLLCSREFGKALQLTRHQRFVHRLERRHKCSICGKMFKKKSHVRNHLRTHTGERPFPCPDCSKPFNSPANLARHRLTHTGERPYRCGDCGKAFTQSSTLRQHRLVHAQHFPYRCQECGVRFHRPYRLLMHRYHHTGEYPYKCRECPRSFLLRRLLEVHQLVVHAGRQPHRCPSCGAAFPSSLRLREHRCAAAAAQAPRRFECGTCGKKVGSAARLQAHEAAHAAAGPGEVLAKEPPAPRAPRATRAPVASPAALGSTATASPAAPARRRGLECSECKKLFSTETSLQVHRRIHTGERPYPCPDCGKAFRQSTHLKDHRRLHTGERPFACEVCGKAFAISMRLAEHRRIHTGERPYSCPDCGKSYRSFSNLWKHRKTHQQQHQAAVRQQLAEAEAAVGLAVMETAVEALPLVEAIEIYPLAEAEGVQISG
UniProt Q9UK33: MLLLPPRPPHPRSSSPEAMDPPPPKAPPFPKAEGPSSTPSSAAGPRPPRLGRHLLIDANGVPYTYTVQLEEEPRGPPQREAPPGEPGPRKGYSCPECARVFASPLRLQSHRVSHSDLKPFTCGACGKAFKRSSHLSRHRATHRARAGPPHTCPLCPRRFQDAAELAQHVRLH
UniProt Q9H2Y7: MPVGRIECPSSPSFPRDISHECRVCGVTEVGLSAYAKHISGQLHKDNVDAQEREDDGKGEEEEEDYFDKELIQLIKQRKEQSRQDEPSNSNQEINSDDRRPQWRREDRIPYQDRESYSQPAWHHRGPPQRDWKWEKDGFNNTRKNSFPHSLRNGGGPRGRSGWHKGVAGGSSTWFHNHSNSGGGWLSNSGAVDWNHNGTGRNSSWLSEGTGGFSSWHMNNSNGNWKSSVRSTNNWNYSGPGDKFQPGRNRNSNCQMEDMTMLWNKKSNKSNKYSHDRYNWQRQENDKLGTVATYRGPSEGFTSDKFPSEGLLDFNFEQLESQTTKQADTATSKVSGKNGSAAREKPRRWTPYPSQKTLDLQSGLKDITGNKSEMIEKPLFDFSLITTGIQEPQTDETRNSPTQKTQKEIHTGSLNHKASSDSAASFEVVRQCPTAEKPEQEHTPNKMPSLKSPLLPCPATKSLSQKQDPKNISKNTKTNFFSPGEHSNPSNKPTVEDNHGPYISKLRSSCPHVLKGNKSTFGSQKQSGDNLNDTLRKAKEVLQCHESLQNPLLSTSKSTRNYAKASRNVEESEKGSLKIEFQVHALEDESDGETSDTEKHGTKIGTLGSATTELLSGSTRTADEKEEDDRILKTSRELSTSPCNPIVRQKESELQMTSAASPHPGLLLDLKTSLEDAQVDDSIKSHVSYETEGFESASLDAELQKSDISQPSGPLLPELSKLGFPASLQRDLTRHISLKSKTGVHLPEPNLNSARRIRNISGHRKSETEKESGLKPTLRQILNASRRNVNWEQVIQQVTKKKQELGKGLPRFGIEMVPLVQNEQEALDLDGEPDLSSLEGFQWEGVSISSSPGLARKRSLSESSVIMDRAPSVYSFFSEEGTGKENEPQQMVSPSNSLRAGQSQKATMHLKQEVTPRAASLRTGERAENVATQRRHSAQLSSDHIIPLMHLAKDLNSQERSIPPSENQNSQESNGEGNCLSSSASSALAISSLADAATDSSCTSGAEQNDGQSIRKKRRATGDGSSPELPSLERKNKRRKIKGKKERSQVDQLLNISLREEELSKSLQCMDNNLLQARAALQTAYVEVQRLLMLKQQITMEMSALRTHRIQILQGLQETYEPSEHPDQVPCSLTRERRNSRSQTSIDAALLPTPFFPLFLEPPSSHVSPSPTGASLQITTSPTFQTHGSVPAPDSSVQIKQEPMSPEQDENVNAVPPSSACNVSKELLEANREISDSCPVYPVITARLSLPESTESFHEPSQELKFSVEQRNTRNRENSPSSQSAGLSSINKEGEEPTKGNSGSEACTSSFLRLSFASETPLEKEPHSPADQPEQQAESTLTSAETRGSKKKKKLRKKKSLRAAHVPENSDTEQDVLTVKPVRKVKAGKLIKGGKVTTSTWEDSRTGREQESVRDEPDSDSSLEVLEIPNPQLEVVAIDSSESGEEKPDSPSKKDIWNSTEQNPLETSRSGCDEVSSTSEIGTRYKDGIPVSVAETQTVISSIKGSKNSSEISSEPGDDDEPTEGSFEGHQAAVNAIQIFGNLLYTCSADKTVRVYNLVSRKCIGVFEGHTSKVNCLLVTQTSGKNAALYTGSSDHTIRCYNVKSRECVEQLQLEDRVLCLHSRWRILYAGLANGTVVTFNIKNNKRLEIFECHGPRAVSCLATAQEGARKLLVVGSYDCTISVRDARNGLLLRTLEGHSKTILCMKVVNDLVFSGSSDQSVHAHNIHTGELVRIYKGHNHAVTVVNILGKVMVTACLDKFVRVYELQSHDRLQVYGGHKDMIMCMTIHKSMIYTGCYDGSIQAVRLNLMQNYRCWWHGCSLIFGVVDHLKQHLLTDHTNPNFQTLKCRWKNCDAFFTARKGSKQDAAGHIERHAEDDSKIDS

Compound: CC1Cc2ccccc2N1C(=O)C1CCCN(C1)C(=O)CCl (mixture of isomers) [TRIM25 ligand 11 (diastereomer mixture)]
Test: probe-labelled cysteine peptide fold change vs DMSO (competition) (log2 fold change); higher = less target engagement (more negative = stronger competition)
Details: THP-1, incubation time: 4 h
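Also: competitive chemoproteomic profiling in live THP-1 cells with an iodoacetamide desthiobiotin (IA-DTB) probe, comparing probe-labelled peptide intensities in compound-treated cells against DMSO-treated controls.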

Target	probe-labelled cysteine peptide fold change (10 µM)	probe-labelled cysteine peptide fold change (50 µM)
ZNF277_Q9NRM2_137_INSTAPFEEQENYFLLCDVLPEDR (UniProt Q9NRM2)	-0.0488	0.293
ZNF316_A6NFI3_95_EVLAEEECPALGTQER (UniProt A6NFI3)	0.155	-0.11
ZFR_Q96KR1_387+391_CELCDVSCTGADAYAAHIR (UniProt Q96KR1)	0.278	-0.0133
ZNF609_O15014_178_SEGVGTCSEK (UniProt O15014)	-0.0654	-0.0851
ZNF316_A6NFI3_808_AHTGERPYACGECGR (UniProt A6NFI3)	-0.0968	-0.0681
ZNF292_O60281_2454_DSDTCVSESNDNSR (UniProt O60281)	-0.0986	-0.103
ZMYM2_Q9UBW7_755_DFCSEDCCK (UniProt Q9UBW7)	-0.0894	0.0415
ZNF217_O75362_286_CIPQLDPFTTFQAWQLATK (UniProt O75362)	-0.073	-0.231
ZFR_Q96KR1_974_RVFECISSGIILK (UniProt Q96KR1)	-0.34	0.174
ZNF579_Q8NAF0_74_LSHSGLRPHACPLCPK (UniProt Q8NAF0)	0.113	0.269
ZFP36L2_P47974_212_CHFIHNADER (UniProt P47974)	-0.166	-0.0526
ZMYM4_Q5VZL5_1264_SDPLGSTQDHALSQESSEPGCR (UniProt Q5VZL5)	0.125	-0.184
ZFAT_Q9P243_392_EALDELCLMTR (UniProt Q9P243)	0.138	-0.0477
ZMYM2_Q9UBW7_872_SCQTDDTWR (UniProt Q9UBW7)	0.135	-0.0499
ZNF574_Q6ZN55_656_CAAAAAQAPR (UniProt Q6ZN55)	0.0507	-0.0462
ZNF644_Q9H582_588_SATYICK (UniProt Q9H582)	0.135	0.132
ZNF580_Q9UK33_122+125_VSHSDLKPFTCGACGK (UniProt Q9UK33)	-0.0849	-0.0216
ZNF106_Q9H2Y7_1620_VLCLHSR (UniProt Q9H2Y7)	0.00393	0.119
ZNF687_Q8N1G0_576_CSLLLHAR (UniProt Q8N1G0)	0.101	0.0491
ZFP36L2_P47974_174_CQFAHGFHELR (UniProt P47974)	0.0485	-0.124
ZNF496_Q96IT1_134_HCEDPVVIDDGDSPLDQEQEQLPVEPHSDLAK (UniProt Q96IT1)	-0.186	-0.0772

Target	probe-labelled cysteine peptide fold change (10 µM)	probe-labelled cysteine peptide fold change (50 µM)
ZFR_Q96KR1_899_CLDALAALR (UniProt Q96KR1)	-0.107	0.0232
ZNF292_O60281_1909_VNKPFVCQNQGCNYSAMTK (UniProt O60281)	-0.227	-0.237
ZNF483_Q8TF39_392_IHLGDRSQKCSK (UniProt Q8TF39)	0.384	0.299
ZFYVE26_Q68DK2_60_RVEDILQALVVCPNLLR (UniProt Q68DK2)	-0.164	-0.114
ZNF592_Q92610_353_SICSDSSSK (UniProt Q92610)	-0.0742	-0.0643
ZNF217_O75362_310_VAICQEVK (UniProt O75362)	0.36	0.131
ZMYM1_Q5SVZ6_532_EYQFCDGAVSDDLSIHSK (UniProt Q5SVZ6)	-0.2	-0.342
ZFAND5_O76080_170+175_CGNLFCGLHR (UniProt O76080)	-0.0788	0.065
ZNF106_Q9H2Y7_1238_EISDSCPVYPVITAR (UniProt Q9H2Y7)	0.142	-0.124
ZNF316_A6NFI3_920_THTGERPYACANCGR (UniProt A6NFI3)	0.182	0.161
ZMYM3_Q14202_1106_IKEDILACSAAELNYGLAQFVR (UniProt Q14202)	0.0186	-0.0446
ZFYVE19_Q96K21_104_AFCSGCLSFSAAVPR (UniProt Q96K21)	-0.0818	0.13
ZFR_Q96KR1_340_ISCAGPQTYK (UniProt Q96KR1)	-0.248	-0.091
ZMYM4_Q5VZL5_732_INNVMAMCEYCK (UniProt Q5VZL5)	-0.00457	-0.0127
ZNF318_Q5VUA4_1071_DCNTICGTMFDFFTHMHNK (UniProt Q5VUA4)	-0.124	0.0115
ZNF281_Q9Y2X9_291+294_HVLIHTGERPFQCSQCSMGFIQK (UniProt Q9Y2X9)	-0.0527	0.0267
ZNF618_Q5T7W0_100_DGTSDVPAEICVVIGGVR (UniProt Q5T7W0)	0.0259	-0.199
ZNF574_Q6ZN55_394+396_AHTPNPLHSCPCGK (UniProt Q6ZN55)	-0.0171	-0.0231
ZNF629_Q9UEG4_214_CFSWSSNLVQHQR (UniProt Q9UEG4)	-0.0363	0.199
ZNF106_Q9H2Y7_1131_IQILQGLQETYEPSEHPDQVPCSLTR (UniProt Q9H2Y7)	0.268	0.108
ZFAND5_O76080_170_CGNLFCGLHR (UniProt O76080)	-0.114	0.258
